PubChem BioAssay AID652259 | Drosophila RNAi Screening Center, 2013

- Screen: 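Identify new Wingless signalling regulators in fly cells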 (primary screen)
- System: Drosophila clone 8 imaginal disc epithelial cells
- Reagent: long dsRNA against Drosophila genes
- Conditions: pathway stimulated by co-transfected Wingless expression plasmid
- Read-out: 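Firefly luciferase from a tcf-site Wingless reporter, measured alongside co-transfected Renilla luciferase that tracks transfection; pathway stimulated by a Wingless plasmid; the firefly-to-Renilla ratio is not deposited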
- Reading the numbers: firefly reporter light: higher = more Wg reporter light, before normalisation; Renilla control light: higher = more transfected or surviving cells
- Hit rule: 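Strong candidates differ from their plate mean by at least two out of four per-plate statistical tests; weak candidates meet just one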
- Calls: active = candidate regulator (raises or lowers reporter); inactive = not a candidate
The screen tested about 22,000 reagents; this is an unselected part of those with a known target gene and a result. Over the whole deposit, 233 (1.1%) got an active call. 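Light values are raw, unnormalised plate reads; the ratio scores behind the reporter calls were not deposited.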 A number with no mark means an inactive call. Reagent sequences are not shown. Not given: the amount of reagent, the time to read-out, the dose of the treatment.

CG10598 [DRSC19358]
- firefly reporter light, replicate 1: 20997
- Renilla control light, replicate 1: 10290

Sfp26Ad [DRSC00904]
- firefly reporter light, replicate 1: 15236
- Renilla control light, replicate 1: 8420

Cyp4ac2 [DRSC03303]
- firefly reporter light, replicate 1: 4739
- firefly reporter light, replicate 2: 9756
- Renilla control light, replicate 1: 1475
- Renilla control light, replicate 2: 3520

Arpc2 [DRSC02113]
- firefly reporter light, replicate 1: 14674
- Renilla control light, replicate 1: 5637

CG14490 [DRSC06461]
- firefly reporter light, replicate 1: 7066
- Renilla control light, replicate 1: 2211

CG8584 [DRSC07217]
- firefly reporter light, replicate 1: 2663
- firefly reporter light, replicate 2: 6185
- Renilla control light, replicate 1: 732
- Renilla control light, replicate 2: 2230

ND-B16.6 [DRSC18306]
- firefly reporter light, replicate 1: 19552
- Renilla control light, replicate 1: 10200

ND-B16.6 [DRSC22600]
- firefly reporter light, replicate 1: 6.66e5
- firefly reporter light, replicate 2: 6.21e5
- Renilla control light, replicate 1: 1.98e5
- Renilla control light, replicate 2: 1.43e5

Lcp65Aa [DRSC11209]
- firefly reporter light, replicate 1: 1425
- firefly reporter light, replicate 2: 8265
- Renilla control light, replicate 1: 834
- Renilla control light, replicate 2: 2834

slv [DRSC07685]
- firefly reporter light, replicate 1: 2427
- firefly reporter light, replicate 2: 6034
- Renilla control light, replicate 1: 896
- Renilla control light, replicate 2: 2740

CG14837 [DRSC10207]
- firefly reporter light, replicate 1: 1288
- firefly reporter light, replicate 2: 6960
- Renilla control light, replicate 1: 1120
- Renilla control light, replicate 2: 2812

Arf6 [DRSC05921]
- firefly reporter light, replicate 1: 7301
- Renilla control light, replicate 1: 2312

ClpP [DRSC02806]
- firefly reporter light, replicate 1: 7761
- Renilla control light, replicate 1: 2843

Snx6 [DRSC03081]
- firefly reporter light, replicate 1: 21840
- Renilla control light, replicate 1: 8940

PPYR1 [DRSC19612]
- firefly reporter light, replicate 1: 16809
- Renilla control light, replicate 1: 7389

Tbca [DRSC15395]
- firefly reporter light, replicate 1: 1612
- firefly reporter light, replicate 2: 3383
- Renilla control light, replicate 1: 598
- Renilla control light, replicate 2: 1027

CG4291 [DRSC00650]
- firefly reporter light, replicate 1: 12241
- Renilla control light, replicate 1: 4441

PIG-G [DRSC06823]
- firefly reporter light, replicate 1: 20471
- Renilla control light, replicate 1: 6992

CG12204 [DRSC19442]
- firefly reporter light, replicate 1: 2987
- firefly reporter light, replicate 2: 5948
- Renilla control light, replicate 1: 1348
- Renilla control light, replicate 2: 1080

Gr59b [DRSC04179]
- firefly reporter light, replicate 1: 2428
- firefly reporter light, replicate 2: 7508
- Renilla control light, replicate 1: 997
- Renilla control light, replicate 2: 3169

Rh6 [DRSC16823]
- firefly reporter light, replicate 1: 11308
- Renilla control light, replicate 1: 3704

Optix [DRSC05078]
- firefly reporter light, replicate 1: 27580
- Renilla control light, replicate 1: 10492

Optix [DRSC07484]
- firefly reporter light, replicate 1: 7698
- Renilla control light, replicate 1: 3114

Optix [DRSC21963]
- firefly reporter light, replicate 1: 5.05e5
- firefly reporter light, replicate 2: 5.33e5
- Renilla control light, replicate 1: 1.88e5
- Renilla control light, replicate 2: 2.00e5

Sbat [DRSC00160]
- firefly reporter light, replicate 1: 16515
- Renilla control light, replicate 1: 7274
